Source: article PMC12463022
These are yes or no findings as the source states them, for the method shown. In cells and extracts the contact can be indirect. Some binding calls cover weakened binding; strength is not graded here.

Chains of the proteins cited; added tags and fusions are not shown. Lines headed by an entry give the natural chain unless they say otherwise; changes in a name come on top. Residues count along the entry.
UniProt P02763: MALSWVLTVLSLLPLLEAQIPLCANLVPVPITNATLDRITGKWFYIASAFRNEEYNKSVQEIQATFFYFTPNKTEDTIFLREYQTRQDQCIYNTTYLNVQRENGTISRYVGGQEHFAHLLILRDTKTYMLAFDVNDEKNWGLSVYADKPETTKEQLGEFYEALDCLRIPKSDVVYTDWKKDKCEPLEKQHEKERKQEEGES
52 – 167 amino acid truncation of ORM1 [ORM1(p.52to167)–Flag]: residues 52-167 of P02763
UniProt P08670: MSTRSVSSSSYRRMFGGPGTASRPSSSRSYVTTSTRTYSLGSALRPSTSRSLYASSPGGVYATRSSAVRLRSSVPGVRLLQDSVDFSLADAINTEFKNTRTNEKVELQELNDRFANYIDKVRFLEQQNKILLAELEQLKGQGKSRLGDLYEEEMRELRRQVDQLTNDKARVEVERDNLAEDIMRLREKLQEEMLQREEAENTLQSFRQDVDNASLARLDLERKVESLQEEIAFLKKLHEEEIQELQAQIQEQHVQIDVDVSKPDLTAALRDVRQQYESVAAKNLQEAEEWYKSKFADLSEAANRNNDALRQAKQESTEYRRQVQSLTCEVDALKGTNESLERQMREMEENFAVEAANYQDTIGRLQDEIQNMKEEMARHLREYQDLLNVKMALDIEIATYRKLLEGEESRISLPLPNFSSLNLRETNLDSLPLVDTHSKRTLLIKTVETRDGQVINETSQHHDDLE

Legend:
[1] = target: orosomucoid 1 (ORM1)–Flag (human) (UniProt P02763); test: co-IP; HEK-293T cells; IP Lysis Buffer, primary antibody overnight at 4 °C, Protein G-Agarose 2 h, western blot
[2] = target: 52 – 167 amino acid truncation of ORM1 [ORM1(p.52to167)–Flag] (human) (UniProt P02763); test: co-IP; C28/I2 cells; IP Lysis Buffer, primary antibody overnight at 4 °C, Protein G-Agarose 2 h, western blot
[3] = target: orosomucoid 1 (ORM1)–Flag (human) (UniProt P02763); test: as above

Measured: binding

vimentin (VIM) (from UniProt P08670 1-466)
binds: all assays above
